PubChem BioAssay AID1508597 – Cure First | 2020

Assay: 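Knock-downs altering ovarian cancer cell survival with or without PARP inhibitor rucaparib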 (primary screen)
System: human ovarian carcinoma lines grown from tumours: OCI-P5x (papillary serous) and OCI-C5x (clear cell)
Knock-down reagent: siRNA pool against human genes, 1.25 pmol siRNA per well
Duration: 72 h or 96 h, depending on the cell culture
Conditions: rucaparib 20 µM (about IC30) or vehicle, present until read-out
Measurement: 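ATP luminescence measured at 72 or 96 h according to the culture, then normalised and expressed as percent viability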
Direction: viability, normalised: higher = more viable cells remaining
Hit rule: 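a well counts as a hit if its normalised viability is under 80 percent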
Meaning of the calls: active = viability under 80%; inactive = viability 80% or more
The whole screen tested about 2,100 reagents; shown is a random part of them. 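Calls flag viability under 80% in either arm, not effects specific to rucaparib; the reference for percent is not stated.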 A number with no mark means an inactive call. Some reagents were tested in more than one well and are listed for each. The record does not give: the 100% reference.

The first 3 entries as a preview:
{"Target gene": "GRK2 (G protein-coupled receptor kinase 2)", "rucaparib or vehicle": "Rucaparib", "cell line": "OCI-C5x (clear cell)", "technical replicate": "1", "viability, normalised (%)": "53.4 (active)"}
{"Target gene": "GRK2 (G protein-coupled receptor kinase 2)", "rucaparib or vehicle": "Rucaparib", "cell line": "OCI-C5x (clear cell)", "technical replicate": "2", "viability, normalised (%)": "45.2 (active)"}
{"Target gene": "GRK2 (G protein-coupled receptor kinase 2)", "rucaparib or vehicle": "Rucaparib", "cell line": "OCI-C5x (clear cell)", "technical replicate": "3", "viability, normalised (%)": "59.7 (active)"}

Main list, from the start:
{"Target gene": "GRK2 (G protein-coupled receptor kinase 2)", "rucaparib or vehicle": "Rucaparib", "cell line": "OCI-C5x (clear cell)", "technical replicate": "1", "viability, normalised (%)": "53.4 (active)"}
{"Target gene": "GRK2 (G protein-coupled receptor kinase 2)", "rucaparib or vehicle": "Rucaparib", "cell line": "OCI-C5x (clear cell)", "technical replicate": "2", "viability, normalised (%)": "45.2 (active)"}
{"Target gene": "GRK2 (G protein-coupled receptor kinase 2)", "rucaparib or vehicle": "Rucaparib", "cell line": "OCI-C5x (clear cell)", "technical replicate": "3", "viability, normalised (%)": "59.7 (active)"}
{"Target gene": "GRK2 (G protein-coupled receptor kinase 2)", "rucaparib or vehicle": "Rucaparib", "cell line": "OCI-P5x (serous)", "technical replicate": "1", "viability, normalised (%)": 82}
{"Target gene": "GRK2 (G protein-coupled receptor kinase 2)", "rucaparib or vehicle": "Rucaparib", "cell line": "OCI-P5x (serous)", "technical replicate": "2", "viability, normalised (%)": 82.1}
{"Target gene": "GRK2 (G protein-coupled receptor kinase 2)", "rucaparib or vehicle": "Rucaparib", "cell line": "OCI-P5x (serous)", "technical replicate": "3", "viability, normalised (%)": "46 (active)"}
{"Target gene": "GRK2 (G protein-coupled receptor kinase 2)", "rucaparib or vehicle": "Vehicle", "cell line": "OCI-C5x (clear cell)", "technical replicate": "1", "viability, normalised (%)": "52.1 (active)"}
{"Target gene": "GRK2 (G protein-coupled receptor kinase 2)", "rucaparib or vehicle": "Vehicle", "cell line": "OCI-C5x (clear cell)", "technical replicate": "2", "viability, normalised (%)": "51.4 (active)"}
{"Target gene": "GRK2 (G protein-coupled receptor kinase 2)", "rucaparib or vehicle": "Vehicle", "cell line": "OCI-C5x (clear cell)", "technical replicate": "3", "viability, normalised (%)": "34.1 (active)"}
{"Target gene": "GRK2 (G protein-coupled receptor kinase 2)", "rucaparib or vehicle": "Vehicle", "cell line": "OCI-P5x (serous)", "technical replicate": "1", "viability, normalised (%)": 85.5}
{"Target gene": "GRK2 (G protein-coupled receptor kinase 2)", "rucaparib or vehicle": "Vehicle", "cell line": "OCI-P5x (serous)", "technical replicate": "2", "viability, normalised (%)": "63.9 (active)"}
{"Target gene": "GRK2 (G protein-coupled receptor kinase 2)", "rucaparib or vehicle": "Vehicle", "cell line": "OCI-P5x (serous)", "technical replicate": "3", "viability, normalised (%)": "65.6 (active)"}
{"Target gene": "TGFB2 (transforming growth factor beta 2)", "rucaparib or vehicle": "Rucaparib", "cell line": "OCI-C5x (clear cell)", "technical replicate": "1", "viability, normalised (%)": "58 (active)"}
{"Target gene": "TGFB2 (transforming growth factor beta 2)", "rucaparib or vehicle": "Rucaparib", "cell line": "OCI-C5x (clear cell)", "technical replicate": "1", "viability, normalised (%)": "37 (active)"}
{"Target gene": "TGFB2 (transforming growth factor beta 2)", "rucaparib or vehicle": "Rucaparib", "cell line": "OCI-C5x (clear cell)", "technical replicate": "2", "viability, normalised (%)": "37.7 (active)"}
{"Target gene": "TGFB2 (transforming growth factor beta 2)", "rucaparib or vehicle": "Rucaparib", "cell line": "OCI-C5x (clear cell)", "technical replicate": "2", "viability, normalised (%)": "65 (active)"}
{"Target gene": "TGFB2 (transforming growth factor beta 2)", "rucaparib or vehicle": "Rucaparib", "cell line": "OCI-C5x (clear cell)", "technical replicate": "3", "viability, normalised (%)": "61.2 (active)"}
{"Target gene": "TGFB2 (transforming growth factor beta 2)", "rucaparib or vehicle": "Rucaparib", "cell line": "OCI-C5x (clear cell)", "technical replicate": "3", "viability, normalised (%)": "41.7 (active)"}
{"Target gene": "TGFB2 (transforming growth factor beta 2)", "rucaparib or vehicle": "Rucaparib", "cell line": "OCI-P5x (serous)", "technical replicate": "1", "viability, normalised (%)": "75.1 (active)"}
{"Target gene": "TGFB2 (transforming growth factor beta 2)", "rucaparib or vehicle": "Rucaparib", "cell line": "OCI-P5x (serous)", "technical replicate": "1", "viability, normalised (%)": "74.4 (active)"}
{"Target gene": "TGFB2 (transforming growth factor beta 2)", "rucaparib or vehicle": "Rucaparib", "cell line": "OCI-P5x (serous)", "technical replicate": "2", "viability, normalised (%)": "71.8 (active)"}
{"Target gene": "TGFB2 (transforming growth factor beta 2)", "rucaparib or vehicle": "Rucaparib", "cell line": "OCI-P5x (serous)", "technical replicate": "2", "viability, normalised (%)": 81.1}
{"Target gene": "TGFB2 (transforming growth factor beta 2)", "rucaparib or vehicle": "Rucaparib", "cell line": "OCI-P5x (serous)", "technical replicate": "3", "viability, normalised (%)": "68.4 (active)"}
{"Target gene": "TGFB2 (transforming growth factor beta 2)", "rucaparib or vehicle": "Rucaparib", "cell line": "OCI-P5x (serous)", "technical replicate": "3", "viability, normalised (%)": "75.7 (active)"}
{"Target gene": "TGFB2 (transforming growth factor beta 2)", "rucaparib or vehicle": "Vehicle", "cell line": "OCI-C5x (clear cell)", "technical replicate": "1", "viability, normalised (%)": "68 (active)"}
{"Target gene": "TGFB2 (transforming growth factor beta 2)", "rucaparib or vehicle": "Vehicle", "cell line": "OCI-C5x (clear cell)", "technical replicate": "1", "viability, normalised (%)": "56.5 (active)"}
{"Target gene": "TGFB2 (transforming growth factor beta 2)", "rucaparib or vehicle": "Vehicle", "cell line": "OCI-C5x (clear cell)", "technical replicate": "2", "viability, normalised (%)": "45.6 (active)"}
{"Target gene": "TGFB2 (transforming growth factor beta 2)", "rucaparib or vehicle": "Vehicle", "cell line": "OCI-C5x (clear cell)", "technical replicate": "2", "viability, normalised (%)": "50.4 (active)"}
{"Target gene": "TGFB2 (transforming growth factor beta 2)", "rucaparib or vehicle": "Vehicle", "cell line": "OCI-C5x (clear cell)", "technical replicate": "3", "viability, normalised (%)": "72.7 (active)"}
{"Target gene": "TGFB2 (transforming growth factor beta 2)", "rucaparib or vehicle": "Vehicle", "cell line": "OCI-C5x (clear cell)", "technical replicate": "3", "viability, normalised (%)": "32.6 (active)"}
{"Target gene": "TGFB2 (transforming growth factor beta 2)", "rucaparib or vehicle": "Vehicle", "cell line": "OCI-P5x (serous)", "technical replicate": "1", "viability, normalised (%)": "62.7 (active)"}
{"Target gene": "TGFB2 (transforming growth factor beta 2)", "rucaparib or vehicle": "Vehicle", "cell line": "OCI-P5x (serous)", "technical replicate": "1", "viability, normalised (%)": 83.9}
{"Target gene": "TGFB2 (transforming growth factor beta 2)", "rucaparib or vehicle": "Vehicle", "cell line": "OCI-P5x (serous)", "technical replicate": "2", "viability, normalised (%)": "67.9 (active)"}
{"Target gene": "TGFB2 (transforming growth factor beta 2)", "rucaparib or vehicle": "Vehicle", "cell line": "OCI-P5x (serous)", "technical replicate": "2", "viability, normalised (%)": 94}
{"Target gene": "TGFB2 (transforming growth factor beta 2)", "rucaparib or vehicle": "Vehicle", "cell line": "OCI-P5x (serous)", "technical replicate": "3", "viability, normalised (%)": "68.3 (active)"}
{"Target gene": "TGFB2 (transforming growth factor beta 2)", "rucaparib or vehicle": "Vehicle", "cell line": "OCI-P5x (serous)", "technical replicate": "3", "viability, normalised (%)": 87}
